Binding data for 1 substance are collected here from publication PMC8672621.

Protein sequences, listed by entry. Tags and fused reporters are not part of them. Lines headed by an entry give the natural chain unless they say otherwise; changes in a name come on top.
UniProt Q01974: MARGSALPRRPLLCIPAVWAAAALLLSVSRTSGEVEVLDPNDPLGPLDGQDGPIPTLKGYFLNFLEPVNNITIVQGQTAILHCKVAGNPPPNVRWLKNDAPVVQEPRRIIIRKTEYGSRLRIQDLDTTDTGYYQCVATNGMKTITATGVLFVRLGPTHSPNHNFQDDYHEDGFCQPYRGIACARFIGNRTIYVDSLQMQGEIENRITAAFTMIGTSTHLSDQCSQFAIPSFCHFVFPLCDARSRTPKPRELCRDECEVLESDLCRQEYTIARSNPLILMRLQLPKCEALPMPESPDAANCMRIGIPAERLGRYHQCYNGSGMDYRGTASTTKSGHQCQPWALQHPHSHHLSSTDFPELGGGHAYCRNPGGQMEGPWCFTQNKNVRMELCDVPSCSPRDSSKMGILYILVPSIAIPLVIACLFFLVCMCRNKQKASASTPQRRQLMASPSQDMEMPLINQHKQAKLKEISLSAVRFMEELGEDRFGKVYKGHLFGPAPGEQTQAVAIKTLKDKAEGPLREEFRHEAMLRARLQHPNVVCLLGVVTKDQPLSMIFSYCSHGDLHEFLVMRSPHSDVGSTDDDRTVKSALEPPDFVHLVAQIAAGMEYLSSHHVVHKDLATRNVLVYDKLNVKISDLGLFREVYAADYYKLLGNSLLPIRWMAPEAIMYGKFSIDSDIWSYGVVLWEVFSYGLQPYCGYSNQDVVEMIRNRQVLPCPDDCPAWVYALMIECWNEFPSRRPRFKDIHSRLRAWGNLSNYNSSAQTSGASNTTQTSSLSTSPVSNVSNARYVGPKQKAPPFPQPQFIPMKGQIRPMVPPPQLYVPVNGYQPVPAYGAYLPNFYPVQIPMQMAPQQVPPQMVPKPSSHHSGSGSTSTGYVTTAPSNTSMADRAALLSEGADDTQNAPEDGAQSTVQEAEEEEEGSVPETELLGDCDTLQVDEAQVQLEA

These are yes or no findings as the source states them, for the method shown. In cells and extracts the contact can be indirect. Where a sequence is shown, tags or fusion partners need not be part of it.

The assay deals with T1, V5-tagged active WNT11 (human) (UniProt O96014).
T1 sequence: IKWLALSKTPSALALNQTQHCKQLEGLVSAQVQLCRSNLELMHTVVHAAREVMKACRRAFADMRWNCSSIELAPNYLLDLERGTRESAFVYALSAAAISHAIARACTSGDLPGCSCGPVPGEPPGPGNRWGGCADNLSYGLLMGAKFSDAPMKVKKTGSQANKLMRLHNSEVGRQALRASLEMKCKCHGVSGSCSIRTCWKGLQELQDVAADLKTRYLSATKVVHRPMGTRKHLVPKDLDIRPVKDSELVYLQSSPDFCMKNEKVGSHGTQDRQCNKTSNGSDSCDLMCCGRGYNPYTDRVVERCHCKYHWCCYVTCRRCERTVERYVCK
The assay can be described thus: co-IP; MCF-7 cells expressing ROR2 constructs transfected with V5-WNT11; 24 h later proteins crosslinked 30 min with 1 mM DSS in PBS + 1 mM MgCl2; lysis in 50 mM Tris/HCl pH 8.0, 150 mM NaCl, 1% NP-40; 500 ug protein with 1 ug V5 antibody or normal rabbit IgG 16 h at 4 °C, protein A/G agarose; ROR2 detected by western blot.

Turning to “ROR2-ΔΔ (amino acids 304-943) (from UniProt Q01974) (domain or fragment)”, the binding result is recorded as “no binding”.
